Reference: PubChem BioAssay AID1347076 (National Center for Advancing Translational Sciences (NCATS), 2019)
The whole screen tested about 400,000 compounds, of which about 13,000 (3.2%) were called active. Inconclusive results, whose numbers are uncertain, are shown with a selection of clear calls. Calls come from the whole dose curve; as a rule, active = well fitted cell-killing curve with a large enough effect; inconclusive = small, poorly fitted or top-dose-only effect, or effect the other way; inactive = flat fitted curve, though single readings scatter. Potencies beside an inconclusive call are fits to weak or partial responses and may not hold up.

Assay: qHTS assay for MDR1-selective chemotherapeutics: Primary screen using the drug-selected MDR subline cells KB-V1; note: nearly all actives have a fitted effect of over 60% in size
Conditions: KB-V1 MDR cells viability, CellTiter-Glo, 72 h; series mostly up to 46.1 µM
How it was run: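 qHTS viability screen in drug-selected KB-V1 MDR cells: 72 h compound treatment at 37 degrees C, ATP luminescence end point.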
Potency is the fitted concentration of half-maximal effect.

SMILES | Potency
Cc1ccc(/C=C/C(=O)N2CCN(Cc3ccccc3)CC2)o1 | active: 13 µM
Cc1[nH]c2ccccc2c1/C=C/c1nc2ccccc2c(=O)n1-c1ccc([N+](=O)[O-])cc1 | inconclusive: 0.58 µM [cytotoxic, full curve, poor fit]
CC(C)(C)C(Cn1ccnc1)NC(=O)c1ccc2nc(C3CC3)oc2c1 (centres undefined) | inactive
COc1ccccc1NC(=O)Cn1c(CCC(=O)O)ccc1-c1ccccc1 | inconclusive: 29.1 µM [rising, single point]
O=C(NC1CCCCC1)C1CCCN(S(=O)(=O)c2ccc(F)cc2)C1 (centres undefined) | inconclusive: 10.3 µM [cytotoxic, partial curve]
CC1CC1C(=O)OCC(=O)c1c(N)n(C)c(=O)n(C)c1=O (centres undefined) | inconclusive: 8.2 µM [rising, partial curve, poor fit]
COc1ccc(CN2C(=O)C(CC(=O)NC(c3ccccc3)c3ccccc3)CC(C(=O)N(C(C)C)C(C)C)=C2C)cc1 (centres undefined) | inconclusive: 23.1 µM [cytotoxic, single point]
COc1cc(NC(=O)NCCN2CCN(c3ccccc3)CC2)cc(OC)c1OC | inactive
O=C(Nc1cccc(Cl)c1)Nc1ccc2c(c1)OCO2 | inconclusive: 29.1 µM [cytotoxic, single point]
CC(C)c1ccc(CC(=O)N2CCC2(C)C(=O)Nc2ccc3c(c2)OCCO3)cc1 (centres undefined) | active: 16.4 µM
COC(=O)c1c(NC(=O)C2CCCCC2)sc2c1CCN(C(C)C)C2 | inconclusive: 4.61 µM [rising, full curve, poor fit]
C#CCOc1ccc(/C=C2\SC(=S)N(Cc3cccnc3)C2=O)cc1 | inconclusive: 18.4 µM [cytotoxic, partial curve, poor fit]
Oc1c(Br)cccc1/C=N/c1ncn[nH]1 | inconclusive: 0.291 µM [rising, full curve, poor fit]
Cc1ccc(S(=O)(=O)N2CCN(CCNC(=O)C(=O)NCc3ccccc3)CC2)cc1 | inconclusive: 3.26 µM [rising, partial curve, poor fit]
O=C(CN1CCCCCC1)Nc1cc(C(F)(F)F)ccc1Cl | inactive
Cn1c(N)c(C(=O)NCc2ccccc2Cl)sc1=S | inconclusive: 14.6 µM [cytotoxic, partial curve, poor fit]
O=C(/C=C/c1ccccc1)Nc1cccc(C(=O)N2CCCCC2)c1 | inactive
Cc1cc(NC(=O)NC(=O)c2ccccc2NC(=O)CN(C)C)ccc1Oc1ncc(Br)cn1 | active: 2.06 µM
Cn1cccc1C(=O)NNC(=O)COc1ccccc1Cl | inconclusive: 18.4 µM [rising, single point]

2 records picked at random from the list so far:
SMILES | Potency
CC(C)(C)C(Cn1ccnc1)NC(=O)c1ccc2nc(C3CC3)oc2c1 (centres undefined) | inactive
CC1CC1C(=O)OCC(=O)c1c(N)n(C)c(=O)n(C)c1=O (centres undefined) | inconclusive: 8.2 µM [rising, partial curve, poor fit]
